At least one compound was matched to its structure with a doubt left.
System: BJ-TERT/LT/ST/RAS^V12 cells
Experiment: Suppression of erastin-induced cell death (suppressor screen and follow-up)
Format: cell-based, human
Conditions: co-treatment with erastin

Structure (SMILES)	Effect on erastin-induced cell death
CC1(COc2ccc(CC3SC(=O)NC3=O)cc2)CCCCC1 (centres unmarked) [ciglitazone]	did not affect erastin-induced cell death
CCOC(=O)C(C)(C)Oc1ccc(Cl)cc1 [clofibrate]	did not affect erastin-induced cell death

— patent publication US20080299076A1, “Compunds and compositions that cause non-apoptotic cell death and uses thereof” (priority 2006, published 2008)
